# The supplement of paper PMC8728848
# The list shows a part of the results.
# Key:
# Assay in all cases: glycan array binding signal (z-score within array); higher = stronger binding
# Details in all cases: glycan notation: IUPAC condensed, linker removed
# [1] = molecular target: Gal(b1-4)Glc
# Procedure, shortened: (§1)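 Arrays were curated from the Consortium for Functional Glycomics database, 3228 in total, and kept only where the protein sequence was available. Binding is expressed as a within-array Z-score. This score was averaged across arrays of the same protein sequence at different concentrations or buffers and across linkers, and negative values can be read as non-binding.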
# [2] = molecular target: Gal(b1-4)Glc6S
# Procedure, shortened: as §1
# [3] = molecular target: Gal(b1-4)GlcNAc
# Procedure, shortened: as §1
# [4] = molecular target: Gal(b1-4)GlcNAc(a1-6)Gal(b1-4)GlcNAc
# Procedure, shortened: as §1
# [5] = molecular target: Gal(b1-4)GlcNAc(b1-2)Man
# Procedure, shortened: as §1
# [6] = molecular target: Gal(b1-4)GlcNAc(b1-2)Man(a1-3)Man(b1-4)GlcNAc(b1-4)GlcNAc
# Procedure, shortened: as §1
# [7] = molecular target: Gal(b1-4)GlcNAc(b1-2)Man(a1-3)[Gal(b1-4)GlcNAc(b1-2)Man(a1-6)]Man(b1-4)GlcNAc(b1-4)GlcNAc
# Procedure, shortened: as §1
# [8] = molecular target: Gal(b1-4)GlcNAc(b1-2)Man(a1-3)[Gal(b1-4)GlcNAc(b1-2)Man(a1-6)]Man(b1-4)GlcNAc(b1-4)[Fuc(a1-6)]GlcNAc
# Procedure, shortened: as §1
# [9] = molecular target: Gal(b1-4)GlcNAc(b1-2)Man(a1-3)[Gal(b1-4)GlcNAc(b1-2)Man(a1-6)][Gal(b1-4)GlcNAc(b1-4)]Man(b1-4)GlcNAc(b1-4)[Fuc(a1-6)]GlcNAc
# Procedure, shortened: as §1
# [10] = molecular target: Gal(b1-4)GlcNAc(b1-2)Man(a1-3)[Gal(b1-4)GlcNAc(b1-2)Man(a1-6)][GlcNAc(b1-4)]Man(b1-4)GlcNAc(b1-4)[Fuc(a1-6)]GlcNAc
# Procedure, shortened: as §1
# [11] = molecular target: Gal(b1-4)GlcNAc(b1-2)Man(a1-3)[GlcNAc(b1-2)Man(a1-6)]Man(b1-4)GlcNAc(b1-4)GlcNAc
# Procedure, shortened: as §1
# [12] = molecular target: Gal(b1-4)GlcNAc(b1-2)Man(a1-3)[GlcNAc(b1-4)][Gal(b1-4)GlcNAc(b1-2)Man(a1-6)]Man(b1-4)GlcNAc(b1-4)GlcNAc
# Procedure, shortened: as §1
# [13] = molecular target: Gal(b1-4)GlcNAc(b1-2)Man(a1-3)[Man(a1-6)]Man(b1-4)GlcNAc(b1-4)GlcNAc
# Procedure, shortened: as §1
# [14] = molecular target: Gal(b1-4)GlcNAc(b1-2)Man(a1-6)Man(b1-4)GlcNAc(b1-4)GlcNAc
# Procedure, shortened: as §1
# [15] = molecular target: Gal(b1-4)GlcNAc(b1-2)Man(a1-6)[GlcNAc(b1-2)Man(a1-3)]Man(b1-4)GlcNAc(b1-4)GlcNAc
# Procedure, shortened: as §1
# [16] = molecular target: Gal(b1-4)GlcNAc(b1-2)Man(a1-6)[Man(a1-3)]Man(b1-4)GlcNAc(b1-4)GlcNAc
# Procedure, shortened: as §1
# [17] = molecular target: Gal(b1-4)GlcNAc(b1-2)[Gal(b1-4)GlcNAc(b1-4)]Man(a1-3)[Gal(b1-4)GlcNAc(b1-2)Man(a1-6)]Man(b1-4)GlcNAc(b1-4)GlcNAc
# Procedure, shortened: as §1
# [18] = molecular target: Gal(b1-4)GlcNAc(b1-2)[Gal(b1-4)GlcNAc(b1-4)]Man(a1-3)[Gal(b1-4)GlcNAc(b1-2)[Gal(b1-4)GlcNAc(b1-6)]Man(a1-6)]Man(b1-4)GlcNAc(b1-4)GlcNAc
# Procedure, shortened: as §1
# [19] = molecular target: Gal(b1-4)GlcNAc(b1-2)[Gal(b1-4)GlcNAc(b1-4)]Man(a1-3)[GlcNAc(b1-4)][Gal(b1-4)GlcNAc(b1-2)Man(a1-6)]Man(b1-4)GlcNAc(b1-4)GlcNAc
# Procedure, shortened: as §1
# [20] = molecular target: Gal(b1-4)GlcNAc(b1-2)[Gal(b1-4)GlcNAc(b1-4)]Man(a1-3)[GlcNAc(b1-4)][Gal(b1-4)GlcNAc(b1-2)[Gal(b1-4)GlcNAc(b1-6)]Man(a1-6)]Man(b1-4)GlcNAc(b1-4)GlcNAc
# Procedure, shortened: as §1
# [21] = molecular target: Gal(b1-4)GlcNAc(b1-2)[Gal(b1-4)GlcNAc(b1-6)]Man(a1-6)[Gal(b1-4)GlcNAc(b1-2)Man(a1-3)]Man(b1-4)GlcNAc(b1-4)GlcNAc
# Procedure, shortened: as §1
# [22] = molecular target: Gal(b1-4)GlcNAc(b1-2)[Gal(b1-4)GlcNAc(b1-6)]Man(a1-6)[Gal(b1-4)GlcNAc(b1-2)Man(a1-3)]Man(b1-4)GlcNAc(b1-4)[Fuc(a1-6)]GlcNAc
# Procedure, shortened: as §1
# [23] = molecular target: Gal(b1-4)GlcNAc(b1-2)[Gal(b1-4)GlcNAc(b1-6)]Man(a1-6)[GlcNAc(b1-4)][Gal(b1-4)GlcNAc(b1-2)Man(a1-3)]Man(b1-4)GlcNAc(b1-4)GlcNAc
# Procedure, shortened: as §1
# [24] = molecular target: Gal(b1-4)GlcNAc(b1-2)[Gal(b1-4)GlcNAc(b1-6)]Man(a1-6)[GlcNAc(b1-4)][Gal(b1-4)GlcNAc(b1-2)[Gal(b1-4)GlcNAc(b1-4)]Man(a1-3)]Man(b1-4)GlcNAc(b1-4)[Fuc(a1-6)]GlcNAc
# Procedure, shortened: as §1
# [25] = molecular target: Gal(b1-4)GlcNAc(b1-3)Gal(b1-3)GalNAc
# Procedure, shortened: as §1
# [26] = molecular target: Gal(b1-4)GlcNAc(b1-3)Gal(b1-3)GlcNAc
# Procedure, shortened: as §1
# [27] = molecular target: Gal(b1-4)GlcNAc(b1-3)Gal(b1-4)Glc
# Procedure, shortened: as §1
# [28] = molecular target: Gal(b1-4)GlcNAc(b1-3)Gal(b1-4)GlcNAc
# Procedure, shortened: as §1
# [29] = molecular target: Gal(b1-4)GlcNAc(b1-3)Gal(b1-4)GlcNAc(b1-2)Man(a1-3)[Gal(b1-4)GlcNAc(b1-3)Gal(b1-4)GlcNAc(b1-2)Man(a1-6)]Man(b1-4)GlcNAc(b1-4)GlcNAc
# Procedure, shortened: as §1
# [30] = molecular target: Gal(b1-4)GlcNAc(b1-3)Gal(b1-4)GlcNAc(b1-2)Man(a1-3)[Gal(b1-4)GlcNAc(b1-3)Gal(b1-4)GlcNAc(b1-2)Man(a1-6)]Man(b1-4)GlcNAc(b1-4)[Fuc(a1-6)]GlcNAc
# Procedure, shortened: as §1
# [31] = molecular target: Gal(b1-4)GlcNAc(b1-3)Gal(b1-4)GlcNAc(b1-2)[Gal(b1-4)GlcNAc(b1-3)Gal(b1-4)GlcNAc(b1-6)]Man(a1-6)[Gal(b1-4)GlcNAc(b1-3)Gal(b1-4)GlcNAc(b1-2)Man(a1-3)]Man(b1-4)GlcNAc(b1-4)GlcNAc
# Procedure, shortened: as §1
# [32] = molecular target: Gal(b1-4)GlcNAc(b1-3)Gal(b1-4)GlcNAc(b1-2)[Gal(b1-4)GlcNAc(b1-3)Gal(b1-4)GlcNAc(b1-6)]Man(a1-6)[Gal(b1-4)GlcNAc(b1-3)Gal(b1-4)GlcNAc(b1-2)Man(a1-3)]Man(b1-4)GlcNAc(b1-4)[Fuc(a1-6)]GlcNAc
# Procedure, shortened: as §1
# [33] = molecular target: Gal(b1-4)GlcNAc(b1-3)Gal(b1-4)GlcNAc(b1-3)Gal(b1-4)GlcNAc
# Procedure, shortened: as §1
# [34] = molecular target: Gal(b1-4)GlcNAc(b1-3)Gal(b1-4)GlcNAc(b1-3)Gal(b1-4)GlcNAc(b1-2)Man(a1-3)[Gal(b1-4)GlcNAc(b1-3)Gal(b1-4)GlcNAc(b1-3)Gal(b1-4)GlcNAc(b1-2)Man(a1-6)]Man(b1-4)GlcNAc(b1-4)GlcNAc
# Procedure, shortened: as §1
# [35] = molecular target: Gal(b1-4)GlcNAc(b1-3)Gal(b1-4)GlcNAc(b1-3)Gal(b1-4)GlcNAc(b1-2)Man(a1-3)[Gal(b1-4)GlcNAc(b1-3)Gal(b1-4)GlcNAc(b1-3)Gal(b1-4)GlcNAc(b1-2)Man(a1-6)]Man(b1-4)GlcNAc(b1-4)[Fuc(a1-6)]GlcNAc
# Procedure, shortened: as §1
# [36] = molecular target: Gal(b1-4)GlcNAc(b1-3)Gal(b1-4)GlcNAc(b1-3)Gal(b1-4)GlcNAc(b1-2)[Gal(b1-4)GlcNAc(b1-3)Gal(b1-4)GlcNAc(b1-3)Gal(b1-4)GlcNAc(b1-6)]Man(a1-6)[Gal(b1-4)GlcNAc(b1-3)Gal(b1-4)GlcNAc(b1-3)Gal(b1-4)GlcNAc(b1-2)Man(a1-3)]Man(b1-4)GlcNAc(b1-4)[Fuc(a1-6)]GlcNAc
# Procedure, shortened: as §1
# [37] = molecular target: Gal(b1-4)GlcNAc(b1-3)Gal(b1-4)GlcNAc(b1-3)Gal(b1-4)GlcNAc(b1-3)Gal(b1-4)GlcNAc(b1-2)Man(a1-3)[Gal(b1-4)GlcNAc(b1-3)Gal(b1-4)GlcNAc(b1-3)Gal(b1-4)GlcNAc(b1-3)Gal(b1-4)GlcNAc(b1-2)Man(a1-6)]Man(b1-4)GlcNAc(b1-4)GlcNAc
# Procedure, shortened: as §1
binder,measurement,setting,value
"HopZSSI-T (Helicobacter pylori), B5Z6D0 (protein) MGSSHHHHHHSSGLVPRGSHMENLYFQGEDNGFFISAGYQIGEAAQMVKNTGELKKLSDTYENLSNLLTNFNNLNQAVTNASSPSEINAAIDNLKANTQGLTGEKTNSPAYQAVYLALNAAVGLWNVIAYNVQCGPGNSSQQSVTFEGQPGHNSSSINCNLTGYNNGVSGPLSIDNFKQLNQAYQVLQQALKQGVPVLNNTNQKIEVKVTTQTNGQSSKETTTTTTTNDAQTLLQEASKMIDVLTTNCPWVNHNPGQNGGAPWGLIRQECVSGFATEFSAVTSMIKNAQEIVTQAQSLNANQNNQNAPQDFNPYTSADRAFAQNMLNHAQAQAKILELADQMKKDLNTIPSQFITNYLAACRIDGTTPSQGVTNNTWGAGCAYVEETITALNNSLAHFGTQAEQIKQSELLARTILDFRGSLSTLNSTYNSITTTASNTPNSPFLKNLISQSTNPNNPGGLQAVYQVNQSAYSQLLSATQELGHNPFRRIGLISSQT",glycan array binding signal (z-score),[1],-0.526
same,glycan array binding signal (z-score),[2],0.852
same,glycan array binding signal (z-score),[3],0.036
same,glycan array binding signal (z-score),[4],-0.398
same,glycan array binding signal (z-score),[5],0.042
same,glycan array binding signal (z-score),[6],-0.359
same,glycan array binding signal (z-score),[7],-0.691
same,glycan array binding signal (z-score),[8],-0.035
same,glycan array binding signal (z-score),[9],-0.243
same,glycan array binding signal (z-score),[10],-0.305
same,glycan array binding signal (z-score),[11],-0.303
same,glycan array binding signal (z-score),[12],-0.51
same,glycan array binding signal (z-score),[13],0.105
same,glycan array binding signal (z-score),[14],-0.076
same,glycan array binding signal (z-score),[15],-0.286
same,glycan array binding signal (z-score),[16],-0.803
same,glycan array binding signal (z-score),[17],-0.209
same,glycan array binding signal (z-score),[18],-0.906
same,glycan array binding signal (z-score),[19],0.227
same,glycan array binding signal (z-score),[20],-0.23
same,glycan array binding signal (z-score),[21],-0.279
same,glycan array binding signal (z-score),[22],-0.065
same,glycan array binding signal (z-score),[23],-0.374
same,glycan array binding signal (z-score),[24],0.577
same,glycan array binding signal (z-score),[25],0.283
same,glycan array binding signal (z-score),[26],0.233
same,glycan array binding signal (z-score),[27],-0.373
same,glycan array binding signal (z-score),[28],-0.343
same,glycan array binding signal (z-score),[29],0.655
same,glycan array binding signal (z-score),[30],-0.305
same,glycan array binding signal (z-score),[31],-0.035
same,glycan array binding signal (z-score),[32],0.605
same,glycan array binding signal (z-score),[33],0.651
same,glycan array binding signal (z-score),[34],0.315
same,glycan array binding signal (z-score),[35],0.707
same,glycan array binding signal (z-score),[36],-0.129
same,glycan array binding signal (z-score),[37],0.638

# 3 neighbouring entries already listed, quoted:
binder,measurement,setting,value
"HopZSSI-T (Helicobacter pylori), B5Z6D0 (protein) MGSSHHHHHHSSGLVPRGSHMENLYFQGEDNGFFISAGYQIGEAAQMVKNTGELKKLSDTYENLSNLLTNFNNLNQAVTNASSPSEINAAIDNLKANTQGLTGEKTNSPAYQAVYLALNAAVGLWNVIAYNVQCGPGNSSQQSVTFEGQPGHNSSSINCNLTGYNNGVSGPLSIDNFKQLNQAYQVLQQALKQGVPVLNNTNQKIEVKVTTQTNGQSSKETTTTTTTNDAQTLLQEASKMIDVLTTNCPWVNHNPGQNGGAPWGLIRQECVSGFATEFSAVTSMIKNAQEIVTQAQSLNANQNNQNAPQDFNPYTSADRAFAQNMLNHAQAQAKILELADQMKKDLNTIPSQFITNYLAACRIDGTTPSQGVTNNTWGAGCAYVEETITALNNSLAHFGTQAEQIKQSELLARTILDFRGSLSTLNSTYNSITTTASNTPNSPFLKNLISQSTNPNNPGGLQAVYQVNQSAYSQLLSATQELGHNPFRRIGLISSQT",glycan array binding signal (z-score),[22],-0.065
same,glycan array binding signal (z-score),[23],-0.374
same,glycan array binding signal (z-score),[24],0.577
